Experimental data reported in US6686394B1, “Aryl-chloro-ethyl ureas” (Sovar, Societe en Commandite, priority 1999, dated 2004).

Each molecule was assayed on HT-29 (assay: Cytotoxicity assay C50/G50, MTT or resazurin (Example 16)).
Assay type: cell-based, human
Protocol: Cell culture. Tumor cell lines (B16-F0, Caco-2, DU-145, HT-29, MDA-MB-231 and other cell lines described so far in the patent application) were obtained from the American Type Culture Collection (ATCC HTB-26; Bethesda, Md.). Cells were grown in RPMI 1640 medium supplemented with 10% fetal bovine serum (Hyclone, Road Logan, Utah) and were cultured in a humidified atmosphere at 37° C. in 5% CO2.
Drugs: All drugs were dissolved in DMSO and the final concentration of DMSO in the culture medium was maintained at 0.5% (v/v).
Cytotoxiciy assays. At day-1, tumor cells in suspension in 100 μl were plated in microtiter plates (96 wells). On day-0, tumor cells were treated by addition of escalating concentrations of the drug (100 μl solution). On that day, the number of living cells was determined in wells that were untreated. This was performed in order to be able to evaluate the toxic concentration of the drug needed to kill 50% of the cellular population present at the beginning of the experiments. This value is represented by C50 in the table. At day-3, the number of living cells is determined using either MTT or resazurin assays. Growth inhibition activity of these compounds was expressed as the concentration of CAU inhibiting cell growth by 50% G50 in the following table
The MTT assay was as described above in Example 1. The Resazurin assay was performed as follows:
Aspirate the supernatant (cell suspension: centrifuge first)
Add 100 μL NaCl 0.9% (saline)
Add 50 μL RZ (resazurin 125 μg/ml/PBS: RPMI without FBS; 1:4) Incubate at 37° C.
Collect fluorescence data at different time.
With CCCCCCc1ccc(NC(=O)NC(CCl)CCC)cc1 (racemic) [Example 14] the C50/G50 was 1.90.
Work on CCCCCCc1ccc(NC(=O)N[C@H](C)CCl)cc1 [Example 6] yielded a C50/G50 of 1.38.
CCCCCCc1ccc(NC(=O)N[C@@H](C)CCl)cc1 [Example 7] gave a C50/G50 of 2.51.
For C[C@@H](CCl)NC(=O)Nc1ccc(C2CCCCC2)cc1 [Example 8], the C50/G50 was 1.40.
For C[C@H](CCl)NC(=O)Nc1ccc(C2CCCCC2)cc1 [Example 9], the C50/G50 was 1.48.
Molecule CCCCCCc1ccc(NC(=O)N[C@H](CC)CCl)cc1 [Example 10] has a C50/G50 of 1.77.
CCCCCCc1ccc(NC(=O)N[C@@H](CC)CCl)cc1 [Example 11] was tested, and the C50/G50 was 1.58.
With CC[C@H](CCl)NC(=O)Nc1ccc(C2CCCCC2)cc1 [Example 12] the C50/G50 was 1.68.
CC[C@@H](CCl)NC(=O)Nc1ccc(C2CCCCC2)cc1 [Example 13] was tested, and the C50/G50 was 2.35.
